PubChem BioAssay AID504793 – Drosophila RNAi Screening Center – 2011
Aim: 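Genes required for cells to halt at G2/M after double-strand DNA breaks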 (primary screen). Cells: Drosophila S2R+ cells. Reagents: long dsRNA against Drosophila genes, about 0.25 µg dsRNA per well. Duration: 4 days of dsRNA, then 4 hours of drug before read-out. Challenge: doxorubicin 0.5 µM for 4 hours to cause double-strand breaks, in cells also given a low, harmless dose of dsRNA against nbs to sensitise the assay. Detection: 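Mitotic index as the number of phospho-histone H3-positive cells in each well following doxorubicin, given as raw counts without normalisation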. Direction: mitotic cells: higher = more cells in mitosis, weaker G2 arrest. Hit rule: 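Genes are called active only when high mitotic counts were reproduced with independent dsRNAs and mitosis was checked for delay without damage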. Calls: active = confirmed in follow-up tests; inactive = not confirmed.
The screen tested about 23,000 reagents; shown is a random part of those that have a named target and a result. Over the whole deposit, 62 (0.27%) were called active. 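Calls come from follow-up tests whose scores are not deposited, so confirmed genes may have low counts here; counts are not normalised per plate.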 Raw values are not corrected between plates. Reagents against one gene are numbered here. A plus sign joins genes that one reagent is predicted to hit.

Dus2 (Dihydrouridine synthase 2)
- mitotic cells, replicate 1: 8
- Call: inactive

lky (leaky) #1
- mitotic cells, replicate 1: 5
- Call: inactive

lky (leaky) #2
- mitotic cells, replicate 1: 3
- Call: inactive

Jhbp4 (Juvenile hormone binding protein 4)
- mitotic cells, replicate 1: 2
- Call: inactive

UbcE2M (NEDD8-conjugating enzyme UbcE2M)
- mitotic cells, replicate 1: 4
- Call: inactive

Indy-2 + CG33934 #1
- mitotic cells, replicate 1: 10
- Call: inactive

Indy-2 + CG33934 #2
- mitotic cells, replicate 1: 9
- Call: inactive

CG14352
- Call: inactive

Nmt (N-myristoyl transferase)
- mitotic cells, replicate 1: 5
- Call: inactive

CG7208 #1
- mitotic cells, replicate 1: 5
- Call: inactive

CG7208 #2
- mitotic cells, replicate 1: 8
- Call: inactive

CG43317
- mitotic cells, replicate 1: 5
- Call: inactive

Jig
- mitotic cells, replicate 1: 11
- Call: inactive

PGRP-LE (Peptidoglycan recognition protein LE)
- mitotic cells, replicate 1: 5
- Call: inactive

PIG-T (Phosphatidylinositol glycan anchor biosynthesis class T)
- mitotic cells, replicate 1: 5
- Call: inactive

Tret1-1 (Trehalose transporter 1-1) #1
- mitotic cells, replicate 1: 2
- Call: inactive

Tret1-1 (Trehalose transporter 1-1) #2
- mitotic cells, replicate 1: 2
- Call: inactive

Tret1-1 (Trehalose transporter 1-1) #3
- mitotic cells, replicate 1: 4
- Call: inactive

CG12374
- mitotic cells, replicate 1: 11
- Call: inactive

mei-S332 (meiotic from via Salaria 332)
- mitotic cells, replicate 1: 6
- Call: inactive

CG10340
- mitotic cells, replicate 1: 3
- Call: inactive

CG13838 #1
- mitotic cells, replicate 1: 9
- mitotic cells, replicate 2: 6
- Call: inactive

CG13838 #2
- mitotic cells, replicate 1: 3
- Call: inactive

Cul5 (Cullin 5)
- mitotic cells, replicate 1: 17
- Call: inactive

CG13097
- mitotic cells, replicate 1: 4
- Call: inactive

CG42729
- mitotic cells, replicate 1: 4
- Call: inactive

CG11384
- mitotic cells, replicate 1: 5
- Call: inactive

CD98hc (CD98 heavy chain)
- mitotic cells, replicate 1: 6
- Call: inactive

CG33493 #1
- mitotic cells, replicate 1: 8
- Call: inactive

CG33493 #2
- mitotic cells, replicate 1: 8
- Call: inactive

hmw (hemingway)
- mitotic cells, replicate 1: 4
- Call: inactive

vilya
- mitotic cells, replicate 1: 12
- Call: inactive

pasi1 (pasiflora 1) #1
- mitotic cells, replicate 1: 3
- mitotic cells, replicate 2: 14
- Call: inactive

pasi1 (pasiflora 1) #2
- mitotic cells, replicate 1: 14
- Call: inactive

pasi1 (pasiflora 1) #3
- mitotic cells, replicate 1: 3
- Call: inactive

Tomosyn #1
- mitotic cells, replicate 1: 7
- Call: inactive

Tomosyn #2
- mitotic cells, replicate 1: 5
- Call: inactive

Tomosyn #3
- mitotic cells, replicate 1: 10
- Call: inactive

Tomosyn #4
- mitotic cells, replicate 1: 11
- mitotic cells, replicate 2: 6
- Call: inactive

Tomosyn #5
- mitotic cells, replicate 1: 19
- Call: inactive

nac (neuronally altered carbohydrate)
- mitotic cells, replicate 1: 2
- Call: inactive

Tsp96F (Tetraspanin 96F)
- mitotic cells, replicate 1: 8
- Call: inactive

Ns2 (Nucleostemin 2) #1
- mitotic cells, replicate 1: 1
- Call: inactive

Ns2 (Nucleostemin 2) #2
- mitotic cells, replicate 1: 4
- Call: inactive

Just “mitotic cells, replicate 1”, for 3 of the entries above:
PIG-T (Phosphatidylinositol glycan anchor biosynthesis class T): 5
Tret1-1 (Trehalose transporter 1-1) #1: 2
Tret1-1 (Trehalose transporter 1-1) #2: 2
